The data set has as its target T1, ParR (Escherichia coli plasmid R1) (UniProt P11906).
T1 sequence (looked up, limits assumed): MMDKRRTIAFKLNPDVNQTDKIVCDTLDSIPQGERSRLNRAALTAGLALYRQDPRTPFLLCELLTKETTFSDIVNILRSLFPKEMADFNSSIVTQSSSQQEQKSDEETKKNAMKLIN
Briefly: EMSA. To be noted: EMSA: 10 mM Tris-HCl pH 7.5, 50 mM NaCl, 0.005% NP-40, 1 mM DTT, 1 mM EDTA, 25 C, 20 min (DNA 20 nM in Methods, 4 nM in Fig 5 legend), recombinant protein, label: 3'-TAMRA on strand 1.

The exact form of at least one protein or probe is not confirmed. Weaker means in comparison with the reference protein, sequence or condition of that experiment. Tags and fusion partners may be left off the protein sequences shown.

“ACCAAAAGCACCACACCCCACGCAAAAACAAG (double strand) [dsoriT]”: where the note is “shift required 40-fold molar excess of protein, nonspecific”, the binding result is “binds more weakly”.
As for “CGAACGAGCAGTTGTTTCAGCG (double strand) [dsrnd]”, for the setting “shift at amounts equivalent to oriT (40-fold excess)”, the binding result is given as “binds more weakly”.

The values are drawn from article PMC4949242, “Conjugative DNA Transfer Is Enhanced by Plasmid R1 Partitioning Proteins”.
